Laboratory results reported in the supplement of paper PMC12819154, “High-throughput peptide-centric local stability assay extends protein–ligand identification to membrane proteins, tissues and bacteria” (Nature Structural & Molecular Biology, 2025).
The other results are listed elsewhere or left out. Most entries show no effect beyond the scatter of the controls.

Protein sequences, listed by entry. Tags and fused reporters are not part of them. Lines headed by an entry give the natural chain unless they say otherwise; changes in a name come on top.
UniProt Q96Q45: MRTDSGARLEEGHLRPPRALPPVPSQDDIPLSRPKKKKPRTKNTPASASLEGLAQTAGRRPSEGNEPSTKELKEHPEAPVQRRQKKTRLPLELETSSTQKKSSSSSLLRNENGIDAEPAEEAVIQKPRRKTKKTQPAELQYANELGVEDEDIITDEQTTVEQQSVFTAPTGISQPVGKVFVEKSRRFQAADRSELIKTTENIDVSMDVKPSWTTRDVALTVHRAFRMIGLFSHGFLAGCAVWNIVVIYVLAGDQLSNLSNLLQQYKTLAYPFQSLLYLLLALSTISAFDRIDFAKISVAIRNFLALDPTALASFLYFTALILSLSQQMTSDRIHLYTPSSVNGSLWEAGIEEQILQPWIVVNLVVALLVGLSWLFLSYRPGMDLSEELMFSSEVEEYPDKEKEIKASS
UniProt Q96RR1: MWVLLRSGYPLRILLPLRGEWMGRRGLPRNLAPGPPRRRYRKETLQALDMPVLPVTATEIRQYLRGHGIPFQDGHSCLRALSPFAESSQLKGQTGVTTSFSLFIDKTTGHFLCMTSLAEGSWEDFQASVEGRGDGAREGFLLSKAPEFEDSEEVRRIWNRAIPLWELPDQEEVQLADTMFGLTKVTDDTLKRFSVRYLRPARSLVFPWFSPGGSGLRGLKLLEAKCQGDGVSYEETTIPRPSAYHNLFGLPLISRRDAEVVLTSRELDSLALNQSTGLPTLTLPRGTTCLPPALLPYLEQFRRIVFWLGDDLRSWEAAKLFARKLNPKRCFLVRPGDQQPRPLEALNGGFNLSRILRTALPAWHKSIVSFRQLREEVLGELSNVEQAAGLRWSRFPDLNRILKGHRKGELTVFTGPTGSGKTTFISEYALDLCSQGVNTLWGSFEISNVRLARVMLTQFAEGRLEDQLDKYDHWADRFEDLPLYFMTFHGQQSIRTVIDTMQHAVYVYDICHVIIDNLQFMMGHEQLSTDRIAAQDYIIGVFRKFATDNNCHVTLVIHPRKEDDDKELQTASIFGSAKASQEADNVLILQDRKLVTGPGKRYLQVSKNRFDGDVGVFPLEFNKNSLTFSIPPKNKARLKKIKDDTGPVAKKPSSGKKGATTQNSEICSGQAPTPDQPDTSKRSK
UniProt Q96IQ9: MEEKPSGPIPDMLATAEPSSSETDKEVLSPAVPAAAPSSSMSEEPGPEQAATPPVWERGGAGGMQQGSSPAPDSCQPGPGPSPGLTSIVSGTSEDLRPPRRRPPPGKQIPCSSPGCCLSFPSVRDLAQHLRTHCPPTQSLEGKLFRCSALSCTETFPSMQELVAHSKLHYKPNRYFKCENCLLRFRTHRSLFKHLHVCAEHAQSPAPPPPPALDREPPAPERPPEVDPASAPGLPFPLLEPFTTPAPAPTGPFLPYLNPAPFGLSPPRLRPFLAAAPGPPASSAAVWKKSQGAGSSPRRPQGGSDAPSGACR
UniProt Q96F63: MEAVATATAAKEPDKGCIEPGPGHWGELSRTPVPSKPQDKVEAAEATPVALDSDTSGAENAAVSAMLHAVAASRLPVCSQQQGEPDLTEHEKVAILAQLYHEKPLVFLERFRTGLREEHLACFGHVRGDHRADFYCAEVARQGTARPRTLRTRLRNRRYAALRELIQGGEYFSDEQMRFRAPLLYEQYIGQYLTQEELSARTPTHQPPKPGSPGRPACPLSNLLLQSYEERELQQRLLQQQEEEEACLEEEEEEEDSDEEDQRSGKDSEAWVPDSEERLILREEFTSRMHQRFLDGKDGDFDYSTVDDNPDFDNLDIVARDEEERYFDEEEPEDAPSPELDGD
UniProt Q96FS4: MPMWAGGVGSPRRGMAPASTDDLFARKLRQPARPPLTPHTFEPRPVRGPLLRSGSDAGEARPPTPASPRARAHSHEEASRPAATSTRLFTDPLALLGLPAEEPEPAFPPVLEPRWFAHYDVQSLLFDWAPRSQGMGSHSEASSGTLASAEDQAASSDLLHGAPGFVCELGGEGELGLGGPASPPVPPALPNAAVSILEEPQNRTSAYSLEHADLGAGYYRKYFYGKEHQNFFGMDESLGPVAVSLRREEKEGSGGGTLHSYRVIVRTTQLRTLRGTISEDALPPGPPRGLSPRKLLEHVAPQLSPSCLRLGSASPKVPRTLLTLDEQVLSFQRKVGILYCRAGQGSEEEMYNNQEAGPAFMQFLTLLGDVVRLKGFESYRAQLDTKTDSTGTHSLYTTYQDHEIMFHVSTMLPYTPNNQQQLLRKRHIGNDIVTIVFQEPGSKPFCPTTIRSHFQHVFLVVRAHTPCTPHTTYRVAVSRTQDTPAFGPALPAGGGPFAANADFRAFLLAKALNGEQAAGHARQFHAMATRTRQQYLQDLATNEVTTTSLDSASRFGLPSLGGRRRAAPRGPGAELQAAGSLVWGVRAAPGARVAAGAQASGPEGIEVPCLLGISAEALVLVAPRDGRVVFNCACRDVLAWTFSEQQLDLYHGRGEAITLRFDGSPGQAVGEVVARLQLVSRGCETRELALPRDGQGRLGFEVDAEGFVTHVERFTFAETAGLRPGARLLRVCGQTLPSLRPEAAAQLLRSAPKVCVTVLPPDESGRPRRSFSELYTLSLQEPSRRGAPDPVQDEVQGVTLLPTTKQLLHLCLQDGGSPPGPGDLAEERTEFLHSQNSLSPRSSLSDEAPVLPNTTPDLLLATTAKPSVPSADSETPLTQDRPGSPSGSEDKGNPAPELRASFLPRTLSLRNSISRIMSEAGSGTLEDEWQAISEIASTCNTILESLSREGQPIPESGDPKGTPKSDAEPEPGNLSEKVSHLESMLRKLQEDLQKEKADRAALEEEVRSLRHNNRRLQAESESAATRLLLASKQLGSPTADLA
UniProt Q96G28: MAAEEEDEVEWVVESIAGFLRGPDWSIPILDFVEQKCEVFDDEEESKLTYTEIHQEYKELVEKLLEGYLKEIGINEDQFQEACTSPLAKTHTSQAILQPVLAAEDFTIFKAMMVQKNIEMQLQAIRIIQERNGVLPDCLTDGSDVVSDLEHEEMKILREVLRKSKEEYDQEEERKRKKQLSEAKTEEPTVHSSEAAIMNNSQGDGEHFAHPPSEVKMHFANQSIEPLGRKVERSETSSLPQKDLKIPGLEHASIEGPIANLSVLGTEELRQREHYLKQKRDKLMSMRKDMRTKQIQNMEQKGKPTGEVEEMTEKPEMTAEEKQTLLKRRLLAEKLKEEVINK

Compound: Cc1nc(Nc2ncc(C(=O)Nc3c(C)cccc3Cl)s2)cc(N2CCN(CCO)CC2)n1 [dasatinib]
Assay: log2 fold change of tryptic peptide abundance, ligand vs vehicle (limited proteolysis) (log2 ratio); higher = more trypsin-susceptible (destabilized)
Conditions: ligand concentration: 5 uM; sample: K562 cleared lysate

Target | log2 fold change
UniProt Q96Q45 (peptide sequence: EHPEAPVQR, peptide start residue: 74) | -0.734
UniProt Q96RR1 (peptide sequence: ALSPFAESSQLK, peptide start residue: 80) | -0.0758
ZNF414 (peptide sequence: RPQGGSDAPSGACR, peptide start residue: 299) (UniProt Q96IQ9) | -0.725
CCDC97 (peptide sequence: EPDKGCIEPGPGHWGELSR, peptide start residue: 12) (UniProt Q96F63) | 0.109
SIPA1 (peptide sequence: AHSHEEASRPAATSTR, peptide start residue: 72) (UniProt Q96FS4) | -0.0975
SPATA33 (peptide sequence: HPPPAASLEEKPDVK, peptide start residue: 61) (UniProt Q96N06) | 0.222
IPO9 (peptide sequence: IHEACMLALGSVK, peptide start residue: 446) (UniProt Q96P70) | -0.185
UniProt Q96G28 (peptide sequence: DKLMSMR, peptide start residue: 281) | -0.138
